# Results as given in the supplement of paper PMC10338343.
# ± gives the standard deviation. The entries are a selection whose mix differs from that of the whole data set. Many of these values have a large error. This is one part of the list.
# Tests used:
# [1] = system: MILI (PIWIL2) piRISC loaded with L1MC piRNA (26 nt); experiment: pre-steady-state target cleavage rate (min^-1); higher = faster piRNA-guided slicing of the target; details: guide: L1MC piRNA 5'p-UAACUAAAUACUAUGCAAGCUGUAGG
# Procedure, shortened: (§1)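 The pre-steady-state cleavage rate was obtained by Cleave-'n-Seq with a burst-and-steady-state fit. A transcribed, DNA-blocked target RNA library (0.1 nM) was mixed with 1 nM active affinity-purified piRISC carrying one synthetic guide, with or without 500 nM GTSF1 partner protein, in HEPES–potassium acetate buffer at 33 °C for 0–8 or 0–960 min. Uncleaved targets were sequenced and normalised to depth and to weakly complementary targets, with three trials pooled and k3 capped at 0.0001 min^-1.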
# [2] = system: MIWI (PIWIL1) piRISC loaded with L1MC piRNA (30 nt); experiment: as above; details: guide: L1MC piRNA 5'p-UAACUAAAUACUAUGCAAGCUGUAGGUCCU
# Procedure, shortened: as §1
# [3] = system: EfPiwi piRISC loaded with L1MC piRNA (26 nt); experiment: pre-steady-state target cleavage rate (min^-1); guide: L1MC piRNA 5'p-UAACUAAAUACUAUGCAAGCUGUAGG; MIWI and MILI are mouse PIWI proteins and EfPiwi is from a freshwater sponge; tags in brackets are library labels; higher = faster piRNA-guided slicing of the target
# Procedure, shortened: as §1
# [4] = auxiliary factor: 500 nM mouse GTSF1
# [5] = auxiliary factor: none (no GTSF1)
# [6] = auxiliary factor: 500 nM Ephydatia muelleri Gtsf1
# [7] = auxiliary factor: none (no Gtsf1)
Sequence,"pre-steady-state target cleavage rate [1, 4]","pre-steady-state target cleavage rate [1, 5]","pre-steady-state target cleavage rate [2, 5]","pre-steady-state target cleavage rate [3, 6]","pre-steady-state target cleavage rate [3, 7]","pre-steady-state target cleavage rate [2, 4]"
UCCUGGAUGUCGAUGCAUAGUAUUUAGUGUA,0.149 ± 0.045,0.00213 ± 0.004,0.00134 ± 0.0074,0.00205 ± 0.0045,0.000465 ± 0.022,
UCCUGGAUCAGGUUGCAUAGUAUUUACAAA,0.0312 ± 0.011,0.00206 ± 0.003,0.00207 ± 0.0043,0.00151 ± 0.0025,0.000154 ± 0.053,
UCCUGGAACAGCAACCAUAGUAUUUAGUAA,0.143 ± 0.019,0.00157 ± 0.0045,0.00118 ± 0.0068,0.00113 ± 0.0072,0.000227 ± 0.037,
UCCUCCUACAGCAUGCAUAGAAUUUAGUUA,0.176 ± 0.044,0.00199 ± 0.0036,,0.00245 ± 0.0015,0.00039 ± 0.013,
UCCUGGAUGAGCUUGCAUACUAUUUAGAAA,0.00223 ± 0.0058,0.000632 ± 0.011,,0.00478 ± 0.0029,0.000387 ± 0.019,
UCCUGGAUCAGCUUGCAUAGUAUAUUCAAA,0.0428 ± 0.01,0.000926 ± 0.0056,0.00124 ± 0.0042,0.00286 ± 0.0039,0.000172 ± 0.056,
UCCUCCUACAGCUUGCAUAGUAUAAAGAAA,0.0951 ± 0.023,0.00148 ± 0.0037,0.000649 ± 0.0036,0.00289 ± 0.0018,0.000552 ± 0.014,
UCCUGGAUGUCGUUGCAUAGUAUUUAGUGUA,0.17 ± 0.027,0.00477 ± 0.0035,0.00218 ± 0.0049,0.000499 ± 0.011,0.000619 ± 0.015,
UCCUGGAUGUCGUUGCAUAGUAUUAUCUUA,0.000948 ± 0.01,0.000121 ± 0.045,,0.000235 ± 0.011,0.000491 ± 0.015,0.000279 ± 0.029
UCCUGGAUGUCGAACCUAAGUAUUUAGUUA,0.000205 ± 0.013,0.000567 ± 0.0057,0.000408 ± 0.0076,0.000329 ± 0.012,0.000115 ± 0.041,
